The numbers were not newly measured in patent publication US4880623A, “Process for the preparation of solid nifedipine formulations of high bioavailability and with sustained effect, and formulations thus obtained” (Eurand Italia S.p.A., priority 1985, dated 1989), which cites them from elsewhere.

In the case of `COC(=O)C1=C(C)NC(C)=C(C(=O)OC)C1c1ccccc1[N+](=O)[O-]` [Nifedipine], the “bioavailability of crystalline nifedipine” value (administered orally, Sugitomo et al.) is recorded as “low”. In addition, the absorption result (oral) is “scarse”.
